Laboratory results: PubChem BioAssay AID504834 (National Center for Advancing Translational Sciences (NCATS), 2011)
In all, about 320,000 compounds went through this assay and about 22,000 (6.9%) were called active. This list was built around the results that the source calls inconclusive (neither active nor inactive); the mix of calls is not that of the screen. Calls come from the whole dose curve; as a rule, active = well fitted inhibition curve with a large enough effect; inconclusive = small, poorly fitted or top-dose-only effect, or another doubt; inactive = no such curve, though single readings can be large or run the other way. Potencies beside an inconclusive call are fits to weak or partial responses and may not hold up. Where a SMILES comes first, the peptide text is derived from it. The star is where a group is joined. Boc = CC(C)(C)OC(=O)*; Bn = c1ccc(C*)cc1; NHNH2 = NN*

assay: Primary qHTS for delayed death inhibitors of the malarial parasite plastid, 96 hour incubation; details: P. falciparum luciferase reporter growth; series mostly up to 28.7 µM
Procedure, shortened: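 Cell-based qHTS: luciferase-tagged P. falciparum in erythrocytes (2% hematocrit, 0.05% parasitemia final) incubated with compounds for 96 hours, 37 C, 5% CO2; luciferase detection reagent then added and luminescence measured.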
Potency is the fitted concentration of half-maximal effect.

Q: Which Potency does the source give for `C/C(NC(=O)c1cccc(F)c1)=C1/C(=O)C[C@@H]2[C@H]1C2(C)C` here?
A: Its Potency is “inactive”.

Q: With `COc1cccc(NC(=S)N(CCCN2CCCC(C)C2)Cc2cccs2)c1` (stereo unspecified) as the compound, how does the Potency read?
A: The Potency was inconclusive: 9.28 µM [inhibitor, partial curve, poor fit].

Q: Which Potency does the source give for `CC(=O)c1cccc(NC(=O)NNC(=O)c2ccc(-c3ccccc3)cc2)c1` here?
A: The Potency was “inactive”.

Q: With `CCOC(=O)c1sc(S(C)=O)c2c1CCc1conc1-2` (stereo unspecified) as the compound, how does the Potency read?
A: The Potency was inconclusive: 8.28 µM [inhibitor, partial curve].

Q: Which Potency does the source give for `COCC(=O)N1CCC(Oc2ccc(C(=O)NCc3cc(C)n(C)n3)cc2)CC1` here?
A: The Potency was inconclusive: 18.5 µM [inhibitor, single point].

Q: With `CC(=O)Nc1ccc(C(=S)NCCCO)cc1` as the compound, how does the Potency read?
A: Its Potency is “inactive”.

Q: With `CCOC(=O)c1ccc(-n2c(=O)[nH]c3ccccc3c2=O)cc1` as the compound, how does the Potency read?
A: Its Potency is inconclusive: 13.1 µM [inhibitor, single point].

Q: For `COc1ccc(N(CC(=O)NCc2ccc(F)cc2)C(=O)c2snc(C(N)=O)c2N)cc1OC`, which Potency is on record?
A: The Potency was “inactive”.

Q: Which Potency does the source give for `CCOC(=O)C1(CCc2ccccc2)CCN(C(=O)Cc2nonc2C)CC1` here?
A: Its Potency is inconclusive: 18.5 µM [inhibitor, single point].

Q: With `Cc1ccc(-c2[nH][nH]c(=O)c(=O)c2N=Nc2ccccc2)cc1` as the compound, how does the Potency read?
A: Its Potency is “inactive”.

Q: Which Potency does the source give for `COc1ccccc1-n1c(SCC(=O)NC2CCS(=O)(=O)C2)nc2cc([N+](=O)[O-])ccc21` (stereo unspecified) here?
A: Its Potency is inconclusive: 18.5 µM [inhibitor, single point].

Q: With `O=C(N/N=C/c1c[nH]c2ccccc12)C1CC1c1ccccc1` (stereo unspecified) as the compound, how does the Potency read?
A: The Potency was inconclusive: 10.4 µM [inhibitor, single point].

Q: For `Cc1ccc2[nH]c3c(=O)n(CC(=O)Nc4ccccc4N4CCN(C)CC4)ncc3c2c1`, which Potency is on record?
A: The Potency was inconclusive: 1.65 µM [inhibitor, partial curve, poor fit].

Q: With `CC(C)CC(NC(=O)C(COCc1ccccc1)NC(=O)OC(C)(C)C)C(=O)NN` (stereo unspecified) (Boc-Ser(Bn)-Leu-NHNH2; configuration not given here) as the compound, how does the Potency read?
A: The Potency was “inactive”.

Q: Which Potency does the source give for `CN(CC(=O)NCCc1ccccc1)S(=O)(=O)c1ccc(Br)cc1` here?
A: The Potency was inconclusive: 0.586 µM [inhibitor, full curve].

Q: For `NNC(=O)[C@H](Cc1ccccc1)NC(=O)Nc1ccc2c(c1)OCCO2`, which Potency is on record?
A: Its Potency is inconclusive: 18.5 µM [inhibitor, single point].

Q: With `O=C(N/N=C/c1ccc([N+](=O)[O-])s1)c1cccnc1` as the compound, how does the Potency read?
A: The Potency was active: 2.94 µM.

Q: With `O=C1CCN(C(=O)CSc2ccc(Cl)cc2)N1` as the compound, how does the Potency read?
A: The Potency was inconclusive: 4.15 µM [inhibitor, partial curve, poor fit].

Q: With `Cc1cc(-c2csc(NC(=O)c3ccc(C#N)cc3)n2)c(C)n1Cc1ccccc1` as the compound, how does the Potency read?
A: Its Potency is “inactive”.

Q: Which Potency does the source give for `CCCCOC(=O)c1ccc(Nc2ncnc3nc[nH]c23)cc1` here?
A: The Potency was “inactive”.

Q: For `O=C1OC(/C=C/c2ccc(Cl)cc2Cl)=NC/1=C\c1cccs1`, which Potency is on record?
A: Its Potency is “inactive”.

Q: With `CN(Cc1ccco1)C(=O)CCc1nc2sc3c(c2c(=O)[nH]1)CCCC3` as the compound, how does the Potency read?
A: Its Potency is inconclusive: 16.5 µM [inhibitor, partial curve, poor fit].

Q: Which Potency does the source give for `Cn1cc(C(=O)N/N=C/c2ccc(Br)c([N+](=O)[O-])c2)c2ccccc21` here?
A: Its Potency is inconclusive: 11.7 µM [inhibitor, partial curve].

Q: With `CCOC(=O)c1c(C)[nH]c(C(=O)CSc2nc(C)cc(C)n2)c1C` as the compound, how does the Potency read?
A: Its Potency is inconclusive: 18.5 µM [inhibitor, single point].

Q: Which Potency does the source give for `CCn1c(SCC(=O)c2ccc3c(c2)OCCO3)nnc1C(C)C` here?
A: Its Potency is inconclusive: 0.0329 µM [inhibitor, full curve, poor fit].

Q: For `O=C(/C=C/c1ccc(F)cc1)c1ccccc1Br`, which Potency is on record?
A: Its Potency is inconclusive: 18.5 µM [inhibitor, single point].

Q: Which Potency does the source give for `CCC(=O)Nc1nc(C)c(-c2csc(Nc3ccc(C(=O)O)cc3)n2)s1` here?
A: The Potency was “inactive”.

Q: Which Potency does the source give for `OC(CSc1ccccc1Cl)CN1CCN(c2ccc(F)cc2)CC1` (stereo unspecified) here?
A: The Potency was inconclusive: 0.0738 µM [inhibitor, full curve, poor fit].

Q: For `CN(C)C(=O)c1ccc(COc2ccccc2Br)o1`, which Potency is on record?
A: Its Potency is inconclusive: 8.28 µM [inhibitor, partial curve, poor fit].

Q: Which Potency does the source give for `O=C(c1ccc(-c2cccc(Cl)c2)o1)N1CCN(c2ccc([N+](=O)[O-])cc2)CC1` here?
A: Its Potency is “inactive”.

Q: With `COc1ccc(NC(=O)CN2C(=O)/C(=C3\SC(=S)N(CCC(=O)O)C3=O)c3ccccc32)cc1` as the compound, how does the Potency read?
A: The Potency was inconclusive: 11.7 µM [inhibitor, partial curve, poor fit].

Q: With `O=C(NCCc1nc2ccccc2[nH]1)/C(=C/c1ccco1)NC(=O)c1ccc(Br)o1` as the compound, how does the Potency read?
A: Its Potency is “inactive”.

Q: Which Potency does the source give for `Cc1cccc(NC(=O)C2c3ccccc3Oc3ccccc32)n1` here?
A: The Potency was “inactive”.

Q: For `CCOc1ccc(N2C(=O)C3ON(C)C(c4ccc([N+](=O)[O-])cc4)C3C2=O)cc1` (stereo unspecified), which Potency is on record?
A: The Potency was “inactive”.

Q: For `Cc1cc(C)n2nc(C(=O)NC3CCCc4ccccc43)nc2n1` (stereo unspecified), which Potency is on record?
A: Its Potency is inconclusive: 13.1 µM [inhibitor, single point].

Q: Which Potency does the source give for `OC1(c2ccccc2F)CCN(Cc2nnnn2CCc2ccccc2)CC1` here?
A: Its Potency is inconclusive: 10.4 µM [inhibitor, single point].

Q: Which Potency does the source give for `CCN1C(=O)C(O)(CC(=O)c2ccc(-n3cccc3)cc2)c2ccccc21` (stereo unspecified) here?
A: Its Potency is inconclusive: 11.7 µM [inhibitor, single point].

Q: For `CC(C)(C=O)C1=CC(=O)c2ccccc2C1=O`, which Potency is on record?
A: The Potency was inconclusive: 10.4 µM [inhibitor, single point].

Q: For `CCOc1ccc(OCC)c(NC(=O)C2COc3ccccc3O2)c1` (stereo unspecified), which Potency is on record?
A: The Potency was “inactive”.

Q: For `O=C1NC(=O)C(=Cc2ccc(-c3ccc(F)cc3O)o2)C(=O)N1`, which Potency is on record?
A: The Potency was “inactive”.

Q: For `CC1CCC(NCCc2ccc3c(c2)OCO3)CC1` (stereo unspecified), which Potency is on record?
A: Its Potency is “inactive”.

Q: Which Potency does the source give for `CN(C)CCCNc1cc(C(C)(C)C)nc2c(-c3ccc(Cl)cc3)cnn12` here?
A: The Potency was inconclusive: 10.4 µM [inhibitor, partial curve].

Q: With `Cc1sc2ncnc(NCC(c3ccco3)N(C)C)c2c1C` (stereo unspecified) as the compound, how does the Potency read?
A: Its Potency is “inactive”.

Q: With `CCn1nnc(NC(=O)C(c2ccccc2)c2ccccc2)n1` as the compound, how does the Potency read?
A: Its Potency is inconclusive: 10.4 µM [inhibitor, single point].

Q: Which Potency does the source give for `COC(=O)Cc1ccc(O)c(N)c1` here?
A: Its Potency is active: 1.85 µM.

Q: Which Potency does the source give for `CCC(C(=O)Nc1sc(C(N)=O)c(C)c1C(=O)OC)c1ccccc1` (stereo unspecified) here?
A: Its Potency is inconclusive: 14.7 µM [inhibitor, single point].
